Some entries share one result that the patent states for a list of compounds.
Experiments:
Type in all cases: in vivo
Phytophthora infestans = conditions: tomato, protective, 100 ppm active compound, evaluation 3 days after inoculation
Venturia inaequalis = experiment: Venturia test (apple)/protective; conditions: protective, 100 ppm active compound, evaluation 12 days after inoculation
Plasmopara viticola = experiment: Plasmopara test (grapevines)/protective; conditions: protective, 100 ppm active compound, evaluation 6 days after inoculation

| SMILES | efficacy (Phytophthora infestans) | efficacy (Venturia inaequalis) | efficacy (Plasmopara viticola) |
| --- | --- | --- | --- |
| COc1cccc(C(C)NC(=O)c2cccc(NC=O)c2O)c1 (stereo not shown) [Example 10] | over 80% |  |  |
| O=CNc1cccc(C(=O)Nc2ccc(Oc3ccc(Cl)cc3)c(Cl)c2)c1O [Example 4] | over 80% | over 80% |  |
| O=CNc1cccc(C(=O)Nc2ccc(Oc3cccc(C(F)(F)F)c3)cc2)c1O [Example 5] | over 80% | over 80% | over 90% |
| O=CNc1cccc(C(=O)Nc2ccc(-c3ccccc3)cc2)c1O [Example 2, 3-formamido-2-hydroxy-N-(4-phenylphenyl)-benzamide] | over 80% |  |  |
| CC(NC(=O)c1cccc(NC=O)c1O)c1ccc(Cl)cc1Cl (stereo not shown) [Example 15] | over 80% | over 80% | over 90% |

Reference: patent US6548549B1, “Acylaminosalicylic acid amides and their uses as pesticides” (Bayer Aktiengesellschaft, priority 1995, dated 2003)
